# Assay results published in publication PMC7922284.
# The chains behind the UniProt entries cited, without tags or fusion partners.
# UniProt P23528: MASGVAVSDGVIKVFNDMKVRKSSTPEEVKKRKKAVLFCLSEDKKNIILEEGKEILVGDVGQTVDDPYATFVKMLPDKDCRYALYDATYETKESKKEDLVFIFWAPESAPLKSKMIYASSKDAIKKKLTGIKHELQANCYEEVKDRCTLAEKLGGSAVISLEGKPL
# No constants are given. Whether binding was seen depends on the method and setting. In cells and extracts the contact can be indirect. Some results given as binding are weak or reduced against the parent protein; the word gives no strength. For some assays here: Tags and fused reporters may be left off the sequences shown.
# Key:
# [1] = target: T1, ABRACL, endogenous in HCT116 cells (human (endogenous in HCT116)) (UniProt Q9P1F3); assay: proximity ligation; Duolink in situ PLA on fixed, permeabilized HCT116 cells plated on fibronectin; rabbit anti-ABRACL and mouse anti-cofilin; shLuc control against ABRACL- or cofilin-knockdown cells
# T1 sequence: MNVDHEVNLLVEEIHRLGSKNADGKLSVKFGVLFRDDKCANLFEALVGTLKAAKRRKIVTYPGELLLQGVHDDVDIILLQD
# ABRACL-Myc-His (human) = target: T2, ABRACL-Myc-His (human) (UniProt Q9P1F3); assay: co-IP; lysates of cells transfected with control vector or pcDNA3.1Myc/His-ABRACL; immunoprecipitation with anti-Myc antibodies or IgG; Western analysis
# T2 sequence: T1 sequence
Substance,binding [1],binding (ABRACL-Myc-His (human))
"cofilin, endogenous in HCT116 cells (from UniProt P23528 1-166)",binds,
"cofilin, endogenous in the transfected cells used for co-immunoprecipitation (from UniProt P23528 1-166)",,binds
